# The list shows a part of the results.
# Chains of the proteins cited; added tags and fusions are not shown. Lines headed by an entry give the natural chain unless they say otherwise; changes in a name come on top.
# UniProt Q6ZS81: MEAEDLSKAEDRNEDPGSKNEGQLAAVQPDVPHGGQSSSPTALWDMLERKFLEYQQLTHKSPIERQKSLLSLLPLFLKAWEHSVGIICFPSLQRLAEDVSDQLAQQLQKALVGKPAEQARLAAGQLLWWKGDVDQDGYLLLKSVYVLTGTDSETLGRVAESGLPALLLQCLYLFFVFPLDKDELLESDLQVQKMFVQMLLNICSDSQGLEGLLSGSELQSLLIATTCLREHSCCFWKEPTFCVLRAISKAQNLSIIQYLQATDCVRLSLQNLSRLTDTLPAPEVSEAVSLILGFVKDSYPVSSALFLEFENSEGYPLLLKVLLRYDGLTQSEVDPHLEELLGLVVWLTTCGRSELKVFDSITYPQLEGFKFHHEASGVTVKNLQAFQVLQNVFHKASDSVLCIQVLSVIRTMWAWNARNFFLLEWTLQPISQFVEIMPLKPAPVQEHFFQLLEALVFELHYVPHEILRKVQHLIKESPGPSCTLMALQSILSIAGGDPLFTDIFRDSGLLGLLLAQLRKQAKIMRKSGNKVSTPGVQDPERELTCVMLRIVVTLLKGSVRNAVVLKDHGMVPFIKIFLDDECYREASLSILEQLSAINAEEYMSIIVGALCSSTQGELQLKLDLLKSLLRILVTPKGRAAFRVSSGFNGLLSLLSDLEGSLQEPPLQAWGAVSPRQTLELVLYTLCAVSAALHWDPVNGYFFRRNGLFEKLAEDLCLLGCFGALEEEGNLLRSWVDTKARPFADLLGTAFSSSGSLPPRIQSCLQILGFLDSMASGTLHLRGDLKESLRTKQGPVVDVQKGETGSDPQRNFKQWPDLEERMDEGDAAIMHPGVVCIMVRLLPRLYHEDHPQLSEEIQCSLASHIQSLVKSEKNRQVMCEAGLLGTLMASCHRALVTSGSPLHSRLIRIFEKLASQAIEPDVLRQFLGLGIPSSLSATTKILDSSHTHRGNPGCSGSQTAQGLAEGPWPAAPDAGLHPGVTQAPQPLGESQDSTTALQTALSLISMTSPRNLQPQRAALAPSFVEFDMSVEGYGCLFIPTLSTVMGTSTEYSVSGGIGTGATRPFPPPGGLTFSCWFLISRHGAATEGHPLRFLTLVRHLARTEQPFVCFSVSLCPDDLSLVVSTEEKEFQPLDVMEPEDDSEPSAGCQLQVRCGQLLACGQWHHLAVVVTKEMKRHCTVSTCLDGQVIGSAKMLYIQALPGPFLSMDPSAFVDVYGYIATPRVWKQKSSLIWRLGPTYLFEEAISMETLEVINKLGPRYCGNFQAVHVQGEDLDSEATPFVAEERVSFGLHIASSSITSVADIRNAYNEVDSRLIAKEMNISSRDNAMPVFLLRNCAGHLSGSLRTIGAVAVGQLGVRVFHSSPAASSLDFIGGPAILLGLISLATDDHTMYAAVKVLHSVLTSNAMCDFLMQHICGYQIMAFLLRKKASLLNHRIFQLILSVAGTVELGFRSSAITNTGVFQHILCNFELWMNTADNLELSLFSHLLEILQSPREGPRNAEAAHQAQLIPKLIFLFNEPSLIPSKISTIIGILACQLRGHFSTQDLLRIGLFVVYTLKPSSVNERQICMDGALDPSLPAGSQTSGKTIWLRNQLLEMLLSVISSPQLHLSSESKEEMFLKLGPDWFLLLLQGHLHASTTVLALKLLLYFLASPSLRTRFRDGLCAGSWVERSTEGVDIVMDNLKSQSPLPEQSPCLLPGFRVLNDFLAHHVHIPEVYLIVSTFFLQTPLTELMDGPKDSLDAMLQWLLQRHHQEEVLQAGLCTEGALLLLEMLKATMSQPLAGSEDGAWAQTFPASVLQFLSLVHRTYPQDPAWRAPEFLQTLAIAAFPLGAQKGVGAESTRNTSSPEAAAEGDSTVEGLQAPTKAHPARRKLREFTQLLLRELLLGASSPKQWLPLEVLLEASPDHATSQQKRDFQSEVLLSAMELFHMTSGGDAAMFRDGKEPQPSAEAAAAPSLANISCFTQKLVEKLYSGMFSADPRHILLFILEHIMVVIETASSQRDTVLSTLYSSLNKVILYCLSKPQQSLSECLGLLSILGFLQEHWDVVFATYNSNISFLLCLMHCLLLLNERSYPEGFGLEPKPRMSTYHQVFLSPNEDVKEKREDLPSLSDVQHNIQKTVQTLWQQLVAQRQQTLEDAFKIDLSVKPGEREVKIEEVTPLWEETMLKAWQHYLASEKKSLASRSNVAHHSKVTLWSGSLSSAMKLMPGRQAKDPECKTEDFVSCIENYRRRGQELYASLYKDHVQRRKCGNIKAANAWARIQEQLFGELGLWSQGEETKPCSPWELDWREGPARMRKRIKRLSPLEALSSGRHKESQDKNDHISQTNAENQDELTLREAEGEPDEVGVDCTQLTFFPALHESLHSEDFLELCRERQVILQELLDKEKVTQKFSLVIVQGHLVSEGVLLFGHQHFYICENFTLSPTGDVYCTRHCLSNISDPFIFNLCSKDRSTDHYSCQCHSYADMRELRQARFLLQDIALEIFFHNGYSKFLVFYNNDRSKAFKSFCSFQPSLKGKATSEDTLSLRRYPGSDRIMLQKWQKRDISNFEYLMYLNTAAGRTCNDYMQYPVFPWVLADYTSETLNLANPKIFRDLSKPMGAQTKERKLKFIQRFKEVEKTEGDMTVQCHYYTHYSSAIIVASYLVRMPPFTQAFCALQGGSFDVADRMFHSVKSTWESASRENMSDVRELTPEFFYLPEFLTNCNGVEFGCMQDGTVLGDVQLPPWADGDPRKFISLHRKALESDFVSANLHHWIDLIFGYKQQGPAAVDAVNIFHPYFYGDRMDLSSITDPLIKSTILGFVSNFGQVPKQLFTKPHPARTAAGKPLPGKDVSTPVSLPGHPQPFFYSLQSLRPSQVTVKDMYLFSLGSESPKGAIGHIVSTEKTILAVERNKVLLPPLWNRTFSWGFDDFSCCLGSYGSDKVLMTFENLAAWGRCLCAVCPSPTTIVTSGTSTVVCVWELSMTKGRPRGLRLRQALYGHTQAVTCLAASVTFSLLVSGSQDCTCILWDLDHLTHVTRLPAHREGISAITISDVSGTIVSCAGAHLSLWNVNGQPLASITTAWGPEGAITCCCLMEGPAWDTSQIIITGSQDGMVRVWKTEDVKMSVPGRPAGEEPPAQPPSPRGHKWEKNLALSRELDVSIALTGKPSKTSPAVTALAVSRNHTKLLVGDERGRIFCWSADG
# UniProt Q8NI36: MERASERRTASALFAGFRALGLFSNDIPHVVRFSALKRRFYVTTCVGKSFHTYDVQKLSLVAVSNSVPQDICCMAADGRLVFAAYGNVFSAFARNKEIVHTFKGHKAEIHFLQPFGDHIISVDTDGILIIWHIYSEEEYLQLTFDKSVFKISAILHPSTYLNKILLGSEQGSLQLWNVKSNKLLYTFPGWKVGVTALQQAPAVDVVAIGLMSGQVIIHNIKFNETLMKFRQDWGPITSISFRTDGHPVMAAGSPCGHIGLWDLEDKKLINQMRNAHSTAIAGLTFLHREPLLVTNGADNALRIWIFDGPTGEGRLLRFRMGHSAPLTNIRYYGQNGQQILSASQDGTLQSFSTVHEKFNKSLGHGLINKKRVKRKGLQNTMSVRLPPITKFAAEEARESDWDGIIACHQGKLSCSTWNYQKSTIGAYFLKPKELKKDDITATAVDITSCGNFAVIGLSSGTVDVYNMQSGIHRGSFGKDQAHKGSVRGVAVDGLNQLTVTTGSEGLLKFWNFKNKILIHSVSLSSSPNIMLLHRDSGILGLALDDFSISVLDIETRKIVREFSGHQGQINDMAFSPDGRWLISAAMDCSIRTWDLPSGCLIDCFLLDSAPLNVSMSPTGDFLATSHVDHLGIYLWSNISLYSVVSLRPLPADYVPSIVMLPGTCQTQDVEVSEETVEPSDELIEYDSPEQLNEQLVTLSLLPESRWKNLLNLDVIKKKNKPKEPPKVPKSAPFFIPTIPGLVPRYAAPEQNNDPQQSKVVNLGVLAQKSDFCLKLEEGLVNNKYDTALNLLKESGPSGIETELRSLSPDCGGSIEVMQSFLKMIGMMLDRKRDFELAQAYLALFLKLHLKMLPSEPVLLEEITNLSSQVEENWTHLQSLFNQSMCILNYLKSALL
# UniProt Q9BV38: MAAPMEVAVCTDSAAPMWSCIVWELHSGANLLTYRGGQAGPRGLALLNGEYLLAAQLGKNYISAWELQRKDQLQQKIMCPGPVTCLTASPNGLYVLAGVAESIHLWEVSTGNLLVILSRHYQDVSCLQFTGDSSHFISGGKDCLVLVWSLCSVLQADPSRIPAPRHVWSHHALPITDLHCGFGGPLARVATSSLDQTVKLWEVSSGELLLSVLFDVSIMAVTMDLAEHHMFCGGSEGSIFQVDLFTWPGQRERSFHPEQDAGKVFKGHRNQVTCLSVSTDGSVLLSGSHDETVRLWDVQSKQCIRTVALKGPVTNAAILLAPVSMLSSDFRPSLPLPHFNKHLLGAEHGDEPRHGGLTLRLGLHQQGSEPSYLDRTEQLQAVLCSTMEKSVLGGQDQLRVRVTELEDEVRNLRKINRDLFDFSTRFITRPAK
# UniProt Q12768: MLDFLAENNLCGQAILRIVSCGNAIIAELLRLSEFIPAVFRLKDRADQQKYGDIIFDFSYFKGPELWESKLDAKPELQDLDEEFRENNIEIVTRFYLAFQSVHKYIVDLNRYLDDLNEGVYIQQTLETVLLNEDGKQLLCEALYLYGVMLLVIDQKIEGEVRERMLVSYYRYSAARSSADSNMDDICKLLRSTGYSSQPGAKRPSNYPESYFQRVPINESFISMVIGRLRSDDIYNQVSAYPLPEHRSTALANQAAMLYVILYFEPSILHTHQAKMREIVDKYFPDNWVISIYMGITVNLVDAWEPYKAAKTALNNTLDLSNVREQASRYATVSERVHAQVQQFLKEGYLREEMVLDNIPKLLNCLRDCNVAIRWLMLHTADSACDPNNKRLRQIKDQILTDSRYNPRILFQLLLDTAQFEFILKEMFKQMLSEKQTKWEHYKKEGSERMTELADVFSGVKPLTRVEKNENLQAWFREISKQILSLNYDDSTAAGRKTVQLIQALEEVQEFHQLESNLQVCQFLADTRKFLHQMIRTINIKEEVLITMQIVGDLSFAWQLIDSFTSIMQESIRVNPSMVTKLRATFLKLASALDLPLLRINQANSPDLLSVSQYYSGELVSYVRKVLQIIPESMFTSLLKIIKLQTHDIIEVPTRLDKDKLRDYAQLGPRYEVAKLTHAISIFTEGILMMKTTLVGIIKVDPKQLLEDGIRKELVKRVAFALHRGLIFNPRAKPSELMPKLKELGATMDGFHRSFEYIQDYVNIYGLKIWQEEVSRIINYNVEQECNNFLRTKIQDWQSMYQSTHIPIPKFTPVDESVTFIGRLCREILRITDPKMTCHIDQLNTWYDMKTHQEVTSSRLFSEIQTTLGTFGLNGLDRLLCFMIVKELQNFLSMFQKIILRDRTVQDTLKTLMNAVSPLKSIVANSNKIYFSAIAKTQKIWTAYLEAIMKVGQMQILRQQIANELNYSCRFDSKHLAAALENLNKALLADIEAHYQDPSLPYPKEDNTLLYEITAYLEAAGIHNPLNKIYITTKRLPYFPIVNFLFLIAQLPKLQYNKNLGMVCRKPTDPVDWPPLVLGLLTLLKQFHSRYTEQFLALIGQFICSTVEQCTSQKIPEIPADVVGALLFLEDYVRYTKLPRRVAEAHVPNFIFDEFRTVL
# UniProt Q9Y6I7: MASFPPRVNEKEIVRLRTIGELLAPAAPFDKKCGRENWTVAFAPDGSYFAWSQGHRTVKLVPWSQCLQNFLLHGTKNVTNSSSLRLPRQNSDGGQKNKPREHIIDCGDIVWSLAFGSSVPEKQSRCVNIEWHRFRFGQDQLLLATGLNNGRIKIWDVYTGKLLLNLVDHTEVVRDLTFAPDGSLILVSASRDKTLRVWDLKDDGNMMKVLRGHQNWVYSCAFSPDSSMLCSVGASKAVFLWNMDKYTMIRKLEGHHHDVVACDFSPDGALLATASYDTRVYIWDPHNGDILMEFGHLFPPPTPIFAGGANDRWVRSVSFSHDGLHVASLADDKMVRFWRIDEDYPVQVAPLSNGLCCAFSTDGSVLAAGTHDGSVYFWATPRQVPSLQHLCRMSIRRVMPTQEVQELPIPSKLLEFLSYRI
# UniProt Q96MX6, whole entry, looked up: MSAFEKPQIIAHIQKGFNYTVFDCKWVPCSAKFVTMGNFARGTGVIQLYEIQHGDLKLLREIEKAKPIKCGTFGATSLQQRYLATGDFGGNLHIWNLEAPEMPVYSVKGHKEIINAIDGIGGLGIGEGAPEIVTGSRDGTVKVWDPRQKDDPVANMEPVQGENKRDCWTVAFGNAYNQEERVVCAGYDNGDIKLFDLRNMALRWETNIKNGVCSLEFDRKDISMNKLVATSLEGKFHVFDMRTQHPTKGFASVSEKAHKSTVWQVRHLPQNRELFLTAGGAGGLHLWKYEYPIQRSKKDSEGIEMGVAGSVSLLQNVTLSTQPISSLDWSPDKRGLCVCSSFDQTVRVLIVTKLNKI
# Compound: CC1Cc2ccccc2N1C(=O)C1CCCN(C1)C(=O)CCl (mixture of isomers) [TRIM25 ligand 11 (diastereomer mixture)]
# Assay: probe-labelled cysteine peptide fold change vs DMSO (competition) (log2 fold change); higher = less target engagement (more negative = stronger competition)
# Conditions: THP-1, incubation time: 4 h
# 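Further: competitive chemoproteomic profiling in live THP-1 cells with an iodoacetamide desthiobiotin (IA-DTB) probe, comparing probe-labelled peptide intensities in compound-treated cells against DMSO-treated controls.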
Target,probe-labelled cysteine peptide fold change (10 µM),probe-labelled cysteine peptide fold change (50 µM)
WDFY4_Q6ZS81_264_AQNLSIIQYLQATDCVR (UniProt Q6ZS81),0.133,-0.00204
WDR36_Q8NI36_470_LSCSTWNYQK (UniProt Q8NI36),0.0514,-0.00465
WDR18_Q9BV38_384_TEQLQAVLCSTMEK (UniProt Q9BV38),0.0584,-0.176
WDR91_A4D1P6_596_LFDMQQHECAMSWR (UniProt A4D1P6),0.0831,-0.144
WNK1_Q9H4A3_1135_VVECQLETHNR (UniProt Q9H4A3),0.0982,0.156
WDR18_Q9BV38_384_LGLHQQGSEPSYLDRTEQLQAVLCSTMEK (UniProt Q9BV38),-0.0296,-0.059
WDR1_O75083_170_LATGSDDNCAAFFEGPPFK (UniProt O75083),0.156,0.139
WASHC3_Q9Y3C0_48_FSTVCEEK (UniProt Q9Y3C0),0.0666,0.0936
WDR37_Q9Y2I8_330_TANLYDVETSELVHSLTGHDQELTHCCTHPTQR (UniProt Q9Y2I8),0.247,0.231
WASHC5_Q12768_369_DCNVAIR (UniProt Q12768),0.0168,0.165
WASHC5_Q12768_838_MTCHIDQLNTWYDMK (UniProt Q12768),0.0216,-0.00847
WDFY4_Q6ZS81_2283_IQEQLFGELGLWSQGEETKPCSPWELDWR (UniProt Q6ZS81),0.33,-0.324
WDR41_Q9HAD4_291_SNDISIHHFTCDEENVFAAVGR (UniProt Q9HAD4),0.286,0.149
XPNPEP1_Q9NQW7_316_CCMPYTPICIAK (UniProt Q9NQW7),0.0278,0.114
WDR37_Q9Y2I8_8_PTESASCSTAR (UniProt Q9Y2I8),0.112,0.277
WSB1_Q9Y6I7_262_KLEGHHHDVVACDFSPDGALLATASYDTR (UniProt Q9Y6I7),-0.206,0.182
WDR92_Q96MX6_213_NGVCSLEFDRK (UniProt Q96MX6),0.00871,0.0922
WDR3_Q9UNX4_70+72_QEVTCLCPSPDGLHLAVGYEDGSIR (UniProt Q9UNX4),0.208,0.0368

# Taken from above for reference:
Target,probe-labelled cysteine peptide fold change (10 µM),probe-labelled cysteine peptide fold change (50 µM)
WSB1_Q9Y6I7_262_KLEGHHHDVVACDFSPDGALLATASYDTR (UniProt Q9Y6I7),-0.206,0.182
WDR92_Q96MX6_213_NGVCSLEFDRK (UniProt Q96MX6),0.00871,0.0922

# Next entries follow:

Target,probe-labelled cysteine peptide fold change (10 µM),probe-labelled cysteine peptide fold change (50 µM)
WDR26_Q9H7D7_153_LIGQHLNGLGLNQTVDLLMQESGCR (UniProt Q9H7D7),-0.116,-0.185
WDR59_Q6PJI9_26_DSQATAMSVDCLGQHAVLSGR (UniProt Q6PJI9),0.188,0.121
WDR7_Q9Y4E6-2_959_QGWSQLAAMHCVMLPDLLGLDK (UniProt Q9Y4E6),-0.0424,-0.0849
WDFY1_Q8IWB7_204_GHEGSVACLWWDPIQR (UniProt Q8IWB7),-0.0298,0.0831
WDR91_A4D1P6_512_ILSLACSPNGASFVCSAAAPSLTSQVDFSAPDIGSK (UniProt A4D1P6),-0.00541,0.064
WDFY3_Q8IZQ1_1600_FGQFISSTLPTFAVCEK (UniProt Q8IZQ1),-0.165,-0.127
WDR44_Q5JSH3_701_LITAANFCQNGK (UniProt Q5JSH3),0.117,0.132
WDR76_Q9H967_596_VHSFGGEYLVSVCSINAMHPTR (UniProt Q9H967),-0.0684,-0.0447
WDR62_O43379_599_DIQMISCGADK (UniProt O43379),-0.297,0.0627
WDFY4_Q6ZS81_2226_TEDFVSCIENYR (UniProt Q6ZS81),-0.0499,-0.0899
WDR82_Q6UXN9_287_HTGPITCLQFNPK (UniProt Q6UXN9),-0.0421,-0.119
XAF1_Q6GPH4_105_LELHESYCGSR (UniProt Q6GPH4),0.214,-0.0316
WDR36_Q8NI36_463_ESDWDGIIACHQGK (UniProt Q8NI36),0.0291,-0.0647
WDFY4_Q6ZS81_88_AWEHSVGIICFPSLQR (UniProt Q6ZS81),-0.125,0.0965
WDR7_Q9Y4E6_69_ALLFGHTASITCLSK (UniProt Q9Y4E6),-0.0603,0.144
XIAP_P98170_465+471_NIAIVFVPCGHLVTCK (UniProt P98170),-0.0472,0.0186
XPC_Q01831_680_DCVHTLHSR (UniProt Q01831),0.0616,0.195
WSB1_Q9Y6I7_66_LVPWSQCLQNFLLHGTK (UniProt Q9Y6I7),-0.191,-0.241

# — the supplement of paper PMC12067093, “Discovery and optimisation of a covalent ligand for TRIM25 and its application to targeted protein ubiquitination” (Chemical Science, 2025)
